From paper PMC10721329, “Quisinostat is a brain-penetrant radiosensitizer in glioblastoma” (JCI Insight, 2023)
“And” between values parts separate entries of the source, which are not always exact repeats. Identical values can stand only once. This continues a long series; more values of the same kind are listed elsewhere.

Assay: Stability in mouse plasma and brain homogenate at 4°C
Type: in vitro ADME
Conditions: 1000 nM
Method: Hydroxamic acid–based compounds have been reported to display poor stability and high plasma clearance due to the presence of arylesterases and carboxylesterases in rodent blood ([34]). Therefore, we measured the stability of QST in mouse plasma and brain to determine whether drug degradation occurred during our sample preparations and equilibrium dialyses for the determination of unbound drug level (performed at 37°C). […] QST degradation was also observed in mouse brain homogenate (Figure 6B). However, perfusion of mice before brain collection prevented rapid drug degradation in the brain matrix. […] Degradation of QST can also be constrained if plasma and brain samples are processed at 4°C (Supplemental Figure 4A). All subsequent sample preparations were therefore performed on ice-cold baths to avoid degradation of QST in our PK analyses. […] The observed stability is probably due to the absence of esterases in human matrices, which are responsible for degradation of QST ([34]). Because we employed QST in several in vitro studies (Figures 1–4), the stability of the molecule was also tested in the cell media used to culture GSCs (neurobasal medium; see Methods).
Stability Study in Mouse Plasma, Mouse Brain, Human Plasma, Human Brain, and Neural […]
The stability of QST was determined in BALB/c mouse plasma, male nude athymic perfused and nonperfused mouse brain homogenate (1:9 w/v of PBS; pH 7.4), human brain (obtained from VRL Eurofins) homogenate (1:4 w/v of PBS; pH 7.4), pooled human plasma (Innovative Research), and neurobasal media. QST stock solutions (1 mM) were prepared in acetonitrile, subsequently diluted in a 40% methanol mixture, and added t o the matrices to make final concentrations of 100 nM or 10 nM. Then 50 or 30 µL of either plasma or brain homogenate containing QST were aliquoted into 1.5-mL microcentrifuge tubes (Eppendorf) and were incubated at either 4 °C or 37 °C for 0, 2, 4, 6, 12, or 24 hours (n = 3 at each time point).
The stability of QST in mouse plasma was also tested at 0, 2, 8, 16, or 24 hours (n = 3 at each time point) in the presence of esterase inhibitors: 0.25 mM BNPP, 1mM dithiobis(2-nitrobenzoic acid) (DTNB), or 1.25 mM phenylmethylsulfonyl fluoride (PMSF). Plasma and brain homogenate samples were stored at −80 °C until LC-MS/MS analysis. […]
Supplemental Figure 4. Stability of QST in mouse plasma is improved upon addition of esterase inhibitors. (A) Stability of QST (100 nM) in mouse plasma and mouse brain homogenate when sample preparation is performed at 4 °C. (B) Stability of QST (500 nM) in mouse plasma spiked with 3 different esterase inhibitors: 0.25 mM bis(p-nitrophenyl) phosphate (BNPP), 1.25 mM phenylmethylsulfonyl fluoride (PMSF), and 1 mM dithiobis(2-nitrobenzoic acid) (DTNB) over the course of 24 hours at 37 °C. (C) Stability of QST (10 nM and 100 nM) in neurobasal cell culture medium over the course of 24 hours at 37 °C.

Cn1cc(CNCC2CCN(c3ncc(C(=O)NO)cn3)CC2)c2ccccc21 [QST, quisinostat]
%stability (mouse brain homogenate, time 0 hrs): 100.0% and 96.5% and 101.8%
%stability (mouse brain homogenate, time 2 hrs): 96.4% and 99.4% and 93.3% and 96.6%
%stability (mouse brain homogenate, time 4 hrs): 85.2% and 86.7% and 83.1% and 85.9%
%stability (mouse plasma, time 0 hrs): 100.0% and 103.7% and 98.6% and 97.7%
%stability (mouse plasma, time 2 hrs): 89.7% and 90.2% and 88.5% and 90.3%
%stability (mouse plasma, time 4 hrs): 84.3% and 83.7% and 83.9% and 85.4%
